# From publication PMC9837035
# By UniProt entry, the sequences of proteins in these tests, tags left out.
# UniProt Q9H165: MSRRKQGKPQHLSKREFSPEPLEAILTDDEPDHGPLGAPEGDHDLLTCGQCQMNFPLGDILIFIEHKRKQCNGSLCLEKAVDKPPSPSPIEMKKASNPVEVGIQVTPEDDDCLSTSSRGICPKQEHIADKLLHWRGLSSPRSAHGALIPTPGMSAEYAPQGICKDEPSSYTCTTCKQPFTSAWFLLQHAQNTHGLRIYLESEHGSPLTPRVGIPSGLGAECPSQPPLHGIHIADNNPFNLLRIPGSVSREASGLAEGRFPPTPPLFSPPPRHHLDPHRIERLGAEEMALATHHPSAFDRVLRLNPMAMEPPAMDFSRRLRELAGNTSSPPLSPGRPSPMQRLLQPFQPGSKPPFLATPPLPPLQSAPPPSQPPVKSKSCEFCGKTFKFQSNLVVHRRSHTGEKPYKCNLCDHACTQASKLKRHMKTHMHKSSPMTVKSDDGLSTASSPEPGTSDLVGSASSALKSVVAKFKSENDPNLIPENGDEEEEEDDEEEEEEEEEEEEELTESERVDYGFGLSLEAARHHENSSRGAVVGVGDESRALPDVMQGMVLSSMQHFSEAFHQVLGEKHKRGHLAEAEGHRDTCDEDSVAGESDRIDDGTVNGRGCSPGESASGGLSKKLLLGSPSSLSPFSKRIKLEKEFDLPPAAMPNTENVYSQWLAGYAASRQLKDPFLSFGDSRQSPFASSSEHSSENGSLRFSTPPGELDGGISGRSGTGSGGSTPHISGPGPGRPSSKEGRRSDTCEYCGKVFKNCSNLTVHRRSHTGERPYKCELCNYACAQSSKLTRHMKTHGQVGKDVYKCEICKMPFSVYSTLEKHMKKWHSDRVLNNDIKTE
# UniProt O95365: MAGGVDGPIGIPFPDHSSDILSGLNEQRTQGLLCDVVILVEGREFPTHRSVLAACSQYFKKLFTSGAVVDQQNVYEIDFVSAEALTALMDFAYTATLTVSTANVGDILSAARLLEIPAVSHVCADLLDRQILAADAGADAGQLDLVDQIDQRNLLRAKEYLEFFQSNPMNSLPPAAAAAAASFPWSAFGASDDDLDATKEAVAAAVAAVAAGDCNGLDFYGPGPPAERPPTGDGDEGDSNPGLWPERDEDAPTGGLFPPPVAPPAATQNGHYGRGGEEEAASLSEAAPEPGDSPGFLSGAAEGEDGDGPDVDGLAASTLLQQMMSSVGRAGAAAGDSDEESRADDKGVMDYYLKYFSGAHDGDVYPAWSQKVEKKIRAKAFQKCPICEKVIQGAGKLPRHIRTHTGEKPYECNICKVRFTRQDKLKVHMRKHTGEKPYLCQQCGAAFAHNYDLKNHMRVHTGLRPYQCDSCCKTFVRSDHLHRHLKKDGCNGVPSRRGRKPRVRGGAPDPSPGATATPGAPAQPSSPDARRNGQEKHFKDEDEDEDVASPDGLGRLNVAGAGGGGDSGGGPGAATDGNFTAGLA
# UniProt Q14839: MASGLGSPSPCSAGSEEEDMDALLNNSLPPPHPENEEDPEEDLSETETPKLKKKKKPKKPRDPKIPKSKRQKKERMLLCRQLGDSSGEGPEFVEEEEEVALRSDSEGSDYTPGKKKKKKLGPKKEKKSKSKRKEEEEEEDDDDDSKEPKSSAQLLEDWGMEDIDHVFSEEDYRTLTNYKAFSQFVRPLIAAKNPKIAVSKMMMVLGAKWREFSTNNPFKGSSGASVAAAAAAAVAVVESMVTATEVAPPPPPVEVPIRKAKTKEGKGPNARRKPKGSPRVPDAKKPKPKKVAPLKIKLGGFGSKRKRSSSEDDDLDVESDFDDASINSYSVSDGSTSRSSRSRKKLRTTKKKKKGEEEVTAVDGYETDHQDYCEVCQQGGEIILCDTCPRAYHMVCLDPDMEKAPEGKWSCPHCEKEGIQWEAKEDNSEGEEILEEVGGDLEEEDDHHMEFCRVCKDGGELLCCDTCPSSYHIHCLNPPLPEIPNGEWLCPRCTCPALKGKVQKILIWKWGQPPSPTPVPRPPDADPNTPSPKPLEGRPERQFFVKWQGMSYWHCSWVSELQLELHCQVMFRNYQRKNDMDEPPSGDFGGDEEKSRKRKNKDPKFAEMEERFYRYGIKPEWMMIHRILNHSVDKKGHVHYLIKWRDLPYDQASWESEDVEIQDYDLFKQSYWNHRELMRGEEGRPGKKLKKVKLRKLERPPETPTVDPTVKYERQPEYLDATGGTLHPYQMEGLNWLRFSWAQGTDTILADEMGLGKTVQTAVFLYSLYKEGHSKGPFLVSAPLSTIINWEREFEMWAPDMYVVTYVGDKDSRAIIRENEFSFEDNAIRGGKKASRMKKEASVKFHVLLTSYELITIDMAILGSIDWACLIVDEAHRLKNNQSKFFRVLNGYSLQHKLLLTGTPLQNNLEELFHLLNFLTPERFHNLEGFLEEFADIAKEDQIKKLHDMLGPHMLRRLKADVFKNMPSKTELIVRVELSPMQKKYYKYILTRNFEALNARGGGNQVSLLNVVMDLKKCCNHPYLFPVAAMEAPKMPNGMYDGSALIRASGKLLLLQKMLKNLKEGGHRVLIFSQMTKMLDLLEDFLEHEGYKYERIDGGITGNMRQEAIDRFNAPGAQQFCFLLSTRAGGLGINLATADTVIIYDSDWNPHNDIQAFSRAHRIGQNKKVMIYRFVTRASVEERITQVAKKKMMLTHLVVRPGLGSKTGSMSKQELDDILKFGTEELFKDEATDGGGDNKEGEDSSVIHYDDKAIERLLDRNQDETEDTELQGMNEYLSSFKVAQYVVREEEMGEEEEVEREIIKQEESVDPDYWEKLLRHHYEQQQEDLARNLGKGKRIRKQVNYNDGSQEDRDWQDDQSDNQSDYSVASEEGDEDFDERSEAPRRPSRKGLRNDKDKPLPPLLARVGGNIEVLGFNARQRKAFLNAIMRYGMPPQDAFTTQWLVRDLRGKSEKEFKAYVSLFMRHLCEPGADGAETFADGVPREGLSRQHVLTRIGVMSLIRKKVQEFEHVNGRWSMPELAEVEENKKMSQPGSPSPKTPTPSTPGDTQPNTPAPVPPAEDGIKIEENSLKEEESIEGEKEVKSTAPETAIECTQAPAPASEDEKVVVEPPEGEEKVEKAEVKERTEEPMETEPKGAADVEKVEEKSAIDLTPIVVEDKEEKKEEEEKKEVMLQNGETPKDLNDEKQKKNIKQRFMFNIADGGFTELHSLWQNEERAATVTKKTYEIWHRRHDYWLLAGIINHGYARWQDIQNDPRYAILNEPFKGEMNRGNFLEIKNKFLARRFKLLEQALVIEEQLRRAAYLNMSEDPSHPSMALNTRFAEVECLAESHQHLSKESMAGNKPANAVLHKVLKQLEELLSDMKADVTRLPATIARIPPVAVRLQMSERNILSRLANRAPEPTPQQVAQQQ
# UniProt Q96KQ7: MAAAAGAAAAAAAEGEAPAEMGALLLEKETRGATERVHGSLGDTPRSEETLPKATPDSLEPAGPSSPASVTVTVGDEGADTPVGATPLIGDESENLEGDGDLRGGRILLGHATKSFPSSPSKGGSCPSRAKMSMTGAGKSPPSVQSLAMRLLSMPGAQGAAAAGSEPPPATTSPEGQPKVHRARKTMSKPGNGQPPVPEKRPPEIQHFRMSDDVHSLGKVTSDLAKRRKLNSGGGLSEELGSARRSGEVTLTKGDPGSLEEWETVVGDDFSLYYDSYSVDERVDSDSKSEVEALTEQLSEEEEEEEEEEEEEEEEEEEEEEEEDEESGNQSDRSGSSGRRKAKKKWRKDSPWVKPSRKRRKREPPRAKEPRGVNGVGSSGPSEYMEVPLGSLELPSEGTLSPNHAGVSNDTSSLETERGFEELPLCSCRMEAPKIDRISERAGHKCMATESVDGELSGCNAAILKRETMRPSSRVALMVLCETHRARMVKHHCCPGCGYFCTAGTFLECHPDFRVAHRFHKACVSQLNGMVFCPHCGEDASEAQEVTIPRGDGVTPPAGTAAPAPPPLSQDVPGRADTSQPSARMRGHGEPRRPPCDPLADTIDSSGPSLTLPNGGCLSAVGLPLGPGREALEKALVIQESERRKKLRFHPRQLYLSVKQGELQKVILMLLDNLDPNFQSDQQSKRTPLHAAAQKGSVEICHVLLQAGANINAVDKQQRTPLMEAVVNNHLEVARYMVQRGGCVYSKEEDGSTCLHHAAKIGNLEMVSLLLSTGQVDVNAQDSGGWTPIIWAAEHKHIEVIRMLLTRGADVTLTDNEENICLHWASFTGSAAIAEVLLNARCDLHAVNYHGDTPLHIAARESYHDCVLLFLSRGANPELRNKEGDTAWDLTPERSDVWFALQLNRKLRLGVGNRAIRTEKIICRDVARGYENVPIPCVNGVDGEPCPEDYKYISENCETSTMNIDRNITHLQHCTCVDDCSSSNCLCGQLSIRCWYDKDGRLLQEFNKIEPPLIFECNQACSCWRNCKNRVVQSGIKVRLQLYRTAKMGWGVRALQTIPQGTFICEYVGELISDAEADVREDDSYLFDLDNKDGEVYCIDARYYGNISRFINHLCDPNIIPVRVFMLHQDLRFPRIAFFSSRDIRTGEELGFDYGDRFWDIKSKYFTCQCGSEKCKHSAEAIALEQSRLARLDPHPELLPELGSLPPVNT
# These are yes or no findings as the source states them, for the method shown. In cells and extracts the contact can be indirect. Some entries that bind do so weakly or less than the wild type.
# Legend:
# [1] = biological target: Biotinylated histone H3K9me2 peptide; experiment: pull-down; 3 μg biotinylated histone peptide on streptavidin sepharose beads, NETN buffer with 0.5% BSA; HUDEP-2 cell lysate added, overnight at 4 °C; immunoblot; only the target purified
# FLAG-tagged BCL11A = FLAG-tagged BCL11A (UniProt Q9H165); experiment: co-IP; HEK293T cells transfected with plasmids, lysed in NETN buffer (50 mM Tris-HCl pH 7.5, 150 mM NaCl, 5 mM EDTA, 0.1% NP-40); anti-FLAG M2 affinity gel overnight at 4 °C; immunoblot
# FLAG-tagged ZBTB7A = FLAG-tagged ZBTB7A (UniProt O95365); experiment: as above
Substance,binding [1],binding (FLAG-tagged BCL11A),binding (FLAG-tagged ZBTB7A)
"BCL11A (endogenous, HUDEP-2) (from UniProt Q9H165 1-835)",binds,,
His-tagged CHD4 (from UniProt Q14839 1-1912),,binds,binds

# Continued, values first:
binding [1],binding (FLAG-tagged BCL11A),binding (FLAG-tagged ZBTB7A),Substance
binds,,,"CHD4 (endogenous, HUDEP-2) (from UniProt Q14839 1-1912)"
,binds,binds,G9a (from UniProt Q96KQ7 1-1210) (enzyme)
binds,,,"ZBTB7A (endogenous, HUDEP-2) (from UniProt O95365 1-584)"
